This note sets out measurements from article PMC4376871.

These are yes or no findings as the source states them, for the method shown. Tags and fused reporters may be left off the sequences shown.

The target in this test is T1, Kinase-dead AtSK22K99R fused to the GAL4 DNA binding domain (Arabidopsis thaliana (ecotype Sei-0 cDNA)) (UniProt Q39012).
T1 sequence: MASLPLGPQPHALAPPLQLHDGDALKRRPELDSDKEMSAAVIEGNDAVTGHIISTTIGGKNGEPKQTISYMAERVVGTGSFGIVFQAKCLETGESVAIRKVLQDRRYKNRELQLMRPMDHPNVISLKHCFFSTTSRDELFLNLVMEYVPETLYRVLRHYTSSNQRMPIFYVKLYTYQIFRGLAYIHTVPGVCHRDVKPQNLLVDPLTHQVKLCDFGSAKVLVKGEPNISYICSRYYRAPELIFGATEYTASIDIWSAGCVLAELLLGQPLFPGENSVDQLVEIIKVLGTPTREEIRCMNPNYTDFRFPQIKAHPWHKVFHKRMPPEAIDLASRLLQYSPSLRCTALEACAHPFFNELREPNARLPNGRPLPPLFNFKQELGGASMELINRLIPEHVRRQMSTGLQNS
Nature of the test: two-hybrid; yeast Y187; C4 or C4 mutants on AD, AtSKs on DBD; quantitative ß-galactosidase activity (Galacto-Star, chemiluminescence) relative to the C4/AtSK23 interaction.

Regarding “Beet curly top virus (BCTV-B[US:Logan:76]) C4 protein fused to the GAL4 activation domain”, the binding entry is on record as “no binding”.
